The target of the test is T1, TCF4, endogenous (mouse intestinal organoids and crypts) (mouse (endogenous in intestinal organoids and crypts)), Q924A0.
T1 chain: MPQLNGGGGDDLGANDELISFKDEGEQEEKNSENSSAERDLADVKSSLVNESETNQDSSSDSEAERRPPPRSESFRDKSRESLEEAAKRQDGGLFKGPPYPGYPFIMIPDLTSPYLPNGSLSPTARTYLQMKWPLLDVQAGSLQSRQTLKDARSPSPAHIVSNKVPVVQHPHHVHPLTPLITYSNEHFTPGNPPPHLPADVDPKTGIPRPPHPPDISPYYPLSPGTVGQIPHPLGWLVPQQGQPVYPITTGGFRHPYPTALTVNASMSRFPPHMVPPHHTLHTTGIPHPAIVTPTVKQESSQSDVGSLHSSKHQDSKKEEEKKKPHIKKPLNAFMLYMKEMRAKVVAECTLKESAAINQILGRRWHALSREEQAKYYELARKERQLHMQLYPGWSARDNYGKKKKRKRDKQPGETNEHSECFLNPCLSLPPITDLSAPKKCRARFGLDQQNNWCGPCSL
The test is described as follows: co-IP; crypts of control and Bcl11b cKO mice, 1 day after 5 daily tamoxifen doses; immunoprecipitation with anti-TCF4 antibody or control IgG, immunoblotting. Conditions: remark: other sources report otherwise. A general note: A western blot detects proteins with antibodies after separation by electrophoresis.

Results are given in words; binding and its absence hold for the method and conditions named. In cells and extracts the contact can be indirect. Some binding calls cover weakened binding; strength is not graded here.

This passage reports binding results from publication PMC11612440.

B1: β-catenin, endogenous (mouse intestinal organoids and crypts), Q02248 1-781 (protein)
chain: MATQADLMELDMAMEPDRKAAVSHWQQQSYLDSGIHSGATTTAPSLSGKGNPEEEDVDTSQVLYEWEQGFSQSFTQEQVADIDGQYAMTRAQRVRAAMFPETLDEGMQIPSTQFDAAHPTNVQRLAEPSQMLKHAVVNLINYQDDAELATRAIPELTKLLNDEDQVVVNKAAVMVHQLSKKEASRHAIMRSPQMVSAIVRTMQNTNDVETARCTAGTLHNLSHHREGLLAIFKSGGIPALVKMLGSPVDSVLFYAITTLHNLLLHQEGAKMAVRLAGGLQKMVALLNKTNVKFLAITTDCLQILAYGNQESKLIILASGGPQALVNIMRTYTYEKLLWTTSRVLKVLSVCSSNKPAIVEAGGMQALGLHLTDPSQRLVQNCLWTLRNLSDAATKQEGMEGLLGTLVQLLGSDDINVVTCAAGILSNLTCNNYKNKMMVCQVGGIEALVRTVLRAGDREDITEPAICALRHLTSRHQEAEMAQNAVRLHYGLPVVVKLLHPPSHWPLIKATVGLIRNLALCPANHAPLREQGAIPRLVQLLVRAHQDTQRRTSMGGTQQQFVEGVRMEEIVEGCTGALHILARDVHNRIVIRGLNTIPLFVQLLYSPIENIQRVAAGVLCELAQDKEAAEAIEAEGATAPLTELLHSRNEGVATYAAAVLFRMSEDKPQDYKKRLSVELTSSLFRTEPMAWNETADLGLDIGAQGEALGYRQDDPSYRSFHSGGYGQDALGMDPMMEHEMGGHHPGADYPVDGLPDLGHAQDLMDGLPPGDSNQLAWFDTDL
As to B1, the binding result is on record as “binds”.
